Legend:
ENT1 = molecular target: T1, ENT1 (Homo sapiens, UniProt Q99808); assay: Inhibition of [3H]uridine uptake into WT HeLa; type: cell-based
T1 sequence (Q99808 1-456): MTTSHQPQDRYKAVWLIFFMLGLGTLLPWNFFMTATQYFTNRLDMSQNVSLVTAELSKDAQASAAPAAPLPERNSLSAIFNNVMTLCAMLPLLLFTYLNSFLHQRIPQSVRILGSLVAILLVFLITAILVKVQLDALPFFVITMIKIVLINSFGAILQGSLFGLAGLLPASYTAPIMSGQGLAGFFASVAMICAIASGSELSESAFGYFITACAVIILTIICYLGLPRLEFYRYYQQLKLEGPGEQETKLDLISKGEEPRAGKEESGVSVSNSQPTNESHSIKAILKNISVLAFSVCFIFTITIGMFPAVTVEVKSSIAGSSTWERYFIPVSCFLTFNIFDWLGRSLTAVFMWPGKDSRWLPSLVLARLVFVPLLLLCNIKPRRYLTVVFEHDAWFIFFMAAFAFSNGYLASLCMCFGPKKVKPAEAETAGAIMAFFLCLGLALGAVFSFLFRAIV

ENT2 = molecular target: T2, ENT2 (Homo sapiens, UniProt Q14542); assay: Inhibition of [3H]uridine uptake into HeLa FlpIn cells overexpressing hENT2; type: cell-based
T2 sequence (Q14542 1-456): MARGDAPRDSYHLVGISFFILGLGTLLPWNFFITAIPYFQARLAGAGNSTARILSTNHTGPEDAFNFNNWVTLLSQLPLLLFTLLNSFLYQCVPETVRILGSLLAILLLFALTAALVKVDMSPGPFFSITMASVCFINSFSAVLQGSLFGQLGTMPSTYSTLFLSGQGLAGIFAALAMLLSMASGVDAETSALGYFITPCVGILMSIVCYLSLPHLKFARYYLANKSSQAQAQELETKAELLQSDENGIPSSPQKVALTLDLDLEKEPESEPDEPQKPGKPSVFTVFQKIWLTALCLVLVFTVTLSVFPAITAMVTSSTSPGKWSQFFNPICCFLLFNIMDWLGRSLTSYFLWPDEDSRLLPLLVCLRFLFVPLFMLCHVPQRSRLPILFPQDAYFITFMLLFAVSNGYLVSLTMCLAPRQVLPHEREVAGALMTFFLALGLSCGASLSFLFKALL

| Compound | IC50 (ENT1) [µM] | inhibition at 20 µM (ENT1; HeLa, read-out: ENT1 % Inhibition (20μM)) [%] | IC50 (ENT2) [µM] | inhibition at 20 µM (ENT2; HeLa, read-out: ENT2 % Inhibition (20μM)) [%] |
| --- | --- | --- | --- | --- |
| O=c1[nH]c2ccccc2n1CCCN1CCC(n2c(=O)[nH]c3cc(Cl)ccc32)CC1 [domperidone] | 5.42 ± 0.2 |  |  |  |
| CN(C)CCN(Cc1cccs1)c1ccccn1 [methapyrilene] | ≥ 1500 | 23.6 | 419 ± 128 | 7.6 |
